Test results as given in US20250163164A1.
No constants are given. Whether binding was seen depends on the method and setting. Some results given as binding are weak or reduced against the parent protein; the word gives no strength.

The chains behind the UniProt entries cited, without tags or fusion partners. Residues count along the entry.
UniProt Q14627, residues 27-380: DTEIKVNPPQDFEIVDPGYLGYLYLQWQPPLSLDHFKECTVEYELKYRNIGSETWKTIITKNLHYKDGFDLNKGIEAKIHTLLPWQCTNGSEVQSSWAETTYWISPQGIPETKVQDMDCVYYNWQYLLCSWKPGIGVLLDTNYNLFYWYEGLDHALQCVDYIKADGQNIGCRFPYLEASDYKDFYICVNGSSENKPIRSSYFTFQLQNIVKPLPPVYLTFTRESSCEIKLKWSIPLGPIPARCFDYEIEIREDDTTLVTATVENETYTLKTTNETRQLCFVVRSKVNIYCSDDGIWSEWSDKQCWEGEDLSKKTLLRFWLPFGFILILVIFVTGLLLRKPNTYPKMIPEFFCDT

Target: human interleukin 13 receptor subunit alpha 2 (IL-13RA2) (human) (UniProt Q14627)
Assay: FACS on A375 cells

binding: binds
B1: 42E3C4 (antibody, V domains shown)
VH: EVKLVESGGGLVRPGGSLKISCAASGFTFSTYGMSWVRQTPEKRLEWVATISGGGSYTYYPDSVKGRFTISRDNAKNNLYLQMSSLRSEDTALYYCARRDLRSAMDYWGQGTSVTVSS
VL: DIVMTQSQKFMSTSVGDRVSVTCKASQNVDINVAWYQQKPGQSPKALIYSASFRYSGVPDRFTGSGSGTDFTLTISNVQSEDLAEYFCQQYNSYPLTFGGGTKLEIK
